No constants are given. Whether binding was seen depends on the method and setting. For some assays here: In cells and extracts the contact can be indirect. Some binding calls cover weakened binding; strength is not graded here. For some assays here: Where a sequence is shown, tags or fusion partners need not be part of it.
T1: 3xFLAG-Pmp23 (S. pneumoniae) (UniProt Q8DPY9)
T1 sequence: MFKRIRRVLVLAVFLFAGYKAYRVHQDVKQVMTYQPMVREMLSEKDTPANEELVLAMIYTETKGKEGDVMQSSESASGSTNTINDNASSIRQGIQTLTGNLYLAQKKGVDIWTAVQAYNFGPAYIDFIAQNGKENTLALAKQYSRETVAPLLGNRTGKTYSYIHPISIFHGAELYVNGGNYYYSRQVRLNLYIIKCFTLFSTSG

Sequences of proteins named here, by UniProt entry; tags and fusion partners are left off. Residues count along the entry.
UniProt P02769, residues 25-607: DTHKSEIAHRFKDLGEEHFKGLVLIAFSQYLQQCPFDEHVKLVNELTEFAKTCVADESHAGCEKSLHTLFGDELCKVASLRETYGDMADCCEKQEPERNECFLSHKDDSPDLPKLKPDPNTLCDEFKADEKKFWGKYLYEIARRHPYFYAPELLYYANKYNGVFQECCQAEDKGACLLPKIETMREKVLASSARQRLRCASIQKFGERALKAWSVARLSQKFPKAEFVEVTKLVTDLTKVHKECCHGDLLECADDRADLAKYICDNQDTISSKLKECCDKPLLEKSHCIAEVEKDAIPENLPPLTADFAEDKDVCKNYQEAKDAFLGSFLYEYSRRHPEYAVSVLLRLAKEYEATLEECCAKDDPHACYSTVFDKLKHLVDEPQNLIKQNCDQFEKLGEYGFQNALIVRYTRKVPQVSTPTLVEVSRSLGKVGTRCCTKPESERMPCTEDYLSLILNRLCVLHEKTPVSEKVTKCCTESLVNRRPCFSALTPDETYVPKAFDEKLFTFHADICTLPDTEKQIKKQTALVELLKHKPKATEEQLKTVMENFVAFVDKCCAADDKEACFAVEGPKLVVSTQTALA

B1: PBP2x (enzyme, UniProt P59676 1-750)
chain: MKWTKRVIRYATKNRKSPAENRRRVGKSLSLLSVFVFAIFLVNFAVIIGTGTRFGTDLAKEAKKVHQTTRTVPAKRGTIYDRNGVPIAEDATSYNVYAVIDENYKSATGKILYVEKTQFNKVAEVFHKYLDMEESYVREQLSQPNLKQVSFGAKGNGITYANMMSIKKELEAAEVKGIDFTTSPNRSYPNGQFASSFIGLAQLHENEDGSKSLLGTSGMESSLNSILAGTDGIITYEKDRLGNIVPGTEQVSQRTMDGKDVYTTISSPLQSFMETQMDAFQEKVKGKYMTATLVSAKTGEILATTQRPTFDADTKEGITEDFVWRDILYQSNYEPGSTMKVMMLAAAIDNNTFPGGEVFNSSELKIADATIRDWDVNEGLTGGRMMTFSQGFAHSSNVGMTLLEQKMGDATWLDYLNRFKFGVPTRFGLTDEYAGQLPADNIVNIAQSSFGQGISVTQTQMIRAFTAIANDGVMLEPKFISAIYDPNDQTARKSQKEIVGNPVSKDAASLTRTNMVLVGTDPVYGTMYNHSTGKPTVTVPGQNVALKSGTAQIADEKNGGYLVGLTDYIFSAVSMSPAENPDFILYVTVQQPEHYSGIQLGEFANPILERASAMKDSLNLQTTAKALEQVSQQSPYPMPSVKDISPGDLAEELRRNLVQPIVVGTGTKIKNSSAEEGKNLAPNQQVLILSDKAEEVPDMYGWTKETAETLAKWLNIELEFQGSGSTVQKQDVRANTAIKDIKKITLTLGD

Legend:
[1] = molecular target: GST-Pmp23 (S. pneumoniae) (UniProt Q8DPY9); assay: MST; 100 nM GST-Pmp23 labeled with NT-647, titrated with PBP2x (7 nM to 235 μM) or BSA (5 nM to 360 μM); 25 °C; 50 mM Tris-HCl, 150 mM NaCl, 10 mM MgCl2, 0.05% Tween-20; triplicates; both purified
[2] = molecular target: T1, 3xFLAG-Pmp23 (S. pneumoniae); assay: co-IP; anti-FLAG agarose resin on Triton X-100 (2%) solubilized membrane proteins of S. pneumoniae expressing 3xflag-pmp23; 5 h at 4 °C; elution with FLAG peptide; Western blot with anti-PBP2x serum and anti-FLAG antibodies

| Molecule | binding [1] | binding [2] |
| --- | --- | --- |
| BSA (bovine serum albumine) (from UniProt P02769 25-607) | no binding (tested: 360 μM) |  |
| B1 |  | binds |
